Protein sequences, listed by entry. Tags and fused reporters are not part of them. Lines headed by an entry give the natural chain unless they say otherwise; changes in a name come on top.
UniProt P46100: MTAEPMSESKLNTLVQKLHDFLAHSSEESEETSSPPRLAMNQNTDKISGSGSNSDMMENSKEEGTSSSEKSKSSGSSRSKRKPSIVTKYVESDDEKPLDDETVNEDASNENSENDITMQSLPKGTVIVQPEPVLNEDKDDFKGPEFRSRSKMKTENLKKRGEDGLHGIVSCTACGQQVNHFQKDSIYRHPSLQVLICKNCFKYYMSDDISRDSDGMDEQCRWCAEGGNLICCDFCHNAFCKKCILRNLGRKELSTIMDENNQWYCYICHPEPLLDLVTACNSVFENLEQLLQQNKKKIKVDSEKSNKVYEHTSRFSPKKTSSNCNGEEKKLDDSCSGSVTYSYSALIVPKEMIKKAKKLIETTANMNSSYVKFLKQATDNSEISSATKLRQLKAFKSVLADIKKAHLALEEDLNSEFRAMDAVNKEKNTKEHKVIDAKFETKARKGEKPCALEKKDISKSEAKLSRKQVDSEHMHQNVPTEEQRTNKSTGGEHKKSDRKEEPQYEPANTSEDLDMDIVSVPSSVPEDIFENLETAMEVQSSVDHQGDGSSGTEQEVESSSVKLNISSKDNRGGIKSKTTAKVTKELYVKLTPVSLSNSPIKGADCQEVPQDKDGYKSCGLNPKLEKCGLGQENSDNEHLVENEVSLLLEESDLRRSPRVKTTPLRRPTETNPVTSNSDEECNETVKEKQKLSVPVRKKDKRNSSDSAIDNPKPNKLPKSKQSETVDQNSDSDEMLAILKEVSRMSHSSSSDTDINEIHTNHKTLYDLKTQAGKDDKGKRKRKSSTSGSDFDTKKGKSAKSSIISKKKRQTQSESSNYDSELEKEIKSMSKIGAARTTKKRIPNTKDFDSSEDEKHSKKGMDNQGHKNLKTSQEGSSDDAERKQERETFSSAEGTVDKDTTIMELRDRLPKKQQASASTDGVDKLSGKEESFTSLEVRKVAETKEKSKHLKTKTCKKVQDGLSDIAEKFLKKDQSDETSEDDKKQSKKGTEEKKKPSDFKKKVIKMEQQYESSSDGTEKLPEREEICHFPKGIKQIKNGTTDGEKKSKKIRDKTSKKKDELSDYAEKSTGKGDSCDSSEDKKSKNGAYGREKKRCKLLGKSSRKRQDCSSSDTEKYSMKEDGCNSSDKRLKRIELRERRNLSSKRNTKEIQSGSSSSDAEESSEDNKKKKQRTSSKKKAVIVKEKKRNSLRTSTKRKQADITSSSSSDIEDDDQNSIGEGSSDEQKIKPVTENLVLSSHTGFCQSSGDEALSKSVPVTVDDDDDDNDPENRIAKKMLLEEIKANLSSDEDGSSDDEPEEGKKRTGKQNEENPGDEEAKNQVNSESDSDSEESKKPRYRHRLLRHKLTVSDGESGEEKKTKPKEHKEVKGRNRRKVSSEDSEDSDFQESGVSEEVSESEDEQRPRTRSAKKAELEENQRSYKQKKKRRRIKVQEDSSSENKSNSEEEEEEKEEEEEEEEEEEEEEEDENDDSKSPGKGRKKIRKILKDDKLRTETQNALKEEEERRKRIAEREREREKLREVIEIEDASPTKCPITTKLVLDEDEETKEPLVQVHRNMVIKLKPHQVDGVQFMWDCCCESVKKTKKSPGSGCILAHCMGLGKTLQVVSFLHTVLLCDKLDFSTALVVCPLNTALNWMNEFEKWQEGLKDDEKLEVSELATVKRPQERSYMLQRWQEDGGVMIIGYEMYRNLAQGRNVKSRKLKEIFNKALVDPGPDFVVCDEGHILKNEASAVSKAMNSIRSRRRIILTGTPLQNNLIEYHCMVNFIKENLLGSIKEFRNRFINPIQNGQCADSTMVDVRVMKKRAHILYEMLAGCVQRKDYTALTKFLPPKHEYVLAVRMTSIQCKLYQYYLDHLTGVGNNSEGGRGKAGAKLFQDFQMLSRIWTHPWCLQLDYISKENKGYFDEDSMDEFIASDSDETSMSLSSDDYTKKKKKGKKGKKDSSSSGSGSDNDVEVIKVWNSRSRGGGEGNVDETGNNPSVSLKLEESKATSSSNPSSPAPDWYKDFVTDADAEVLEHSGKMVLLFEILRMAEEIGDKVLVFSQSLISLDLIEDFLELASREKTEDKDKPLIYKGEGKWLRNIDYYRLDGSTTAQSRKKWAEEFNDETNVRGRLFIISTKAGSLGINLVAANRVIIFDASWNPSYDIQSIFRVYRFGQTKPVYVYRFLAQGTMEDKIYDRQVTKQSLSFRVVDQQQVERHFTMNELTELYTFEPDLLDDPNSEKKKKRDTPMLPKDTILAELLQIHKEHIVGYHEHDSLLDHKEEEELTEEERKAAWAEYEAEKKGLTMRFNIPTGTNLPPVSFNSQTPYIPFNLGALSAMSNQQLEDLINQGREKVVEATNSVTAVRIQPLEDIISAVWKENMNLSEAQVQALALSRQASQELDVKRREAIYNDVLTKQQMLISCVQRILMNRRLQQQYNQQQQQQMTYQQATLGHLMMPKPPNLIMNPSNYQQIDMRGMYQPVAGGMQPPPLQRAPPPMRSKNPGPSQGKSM
UniProt Q9NVI7: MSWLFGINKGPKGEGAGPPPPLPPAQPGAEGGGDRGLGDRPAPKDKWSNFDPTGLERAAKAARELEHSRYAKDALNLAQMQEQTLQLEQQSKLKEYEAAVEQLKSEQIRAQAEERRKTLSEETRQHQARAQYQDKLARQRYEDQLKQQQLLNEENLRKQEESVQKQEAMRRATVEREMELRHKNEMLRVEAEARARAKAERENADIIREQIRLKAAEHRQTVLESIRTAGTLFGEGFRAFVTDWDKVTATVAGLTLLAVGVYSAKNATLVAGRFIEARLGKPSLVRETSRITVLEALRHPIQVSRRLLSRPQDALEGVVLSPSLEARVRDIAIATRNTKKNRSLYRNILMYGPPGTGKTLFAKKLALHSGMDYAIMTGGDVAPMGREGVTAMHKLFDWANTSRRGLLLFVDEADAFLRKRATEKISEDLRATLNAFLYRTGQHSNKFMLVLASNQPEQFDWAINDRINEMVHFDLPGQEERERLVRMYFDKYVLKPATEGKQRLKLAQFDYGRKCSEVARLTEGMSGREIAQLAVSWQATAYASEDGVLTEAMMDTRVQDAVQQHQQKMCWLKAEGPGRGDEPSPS
UniProt O94817, whole entry, looked up: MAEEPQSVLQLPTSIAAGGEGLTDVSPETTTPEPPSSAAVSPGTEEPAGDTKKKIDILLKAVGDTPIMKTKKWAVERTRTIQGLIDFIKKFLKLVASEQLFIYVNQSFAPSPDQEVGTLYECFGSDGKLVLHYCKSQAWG
UniProt Q8WWM7: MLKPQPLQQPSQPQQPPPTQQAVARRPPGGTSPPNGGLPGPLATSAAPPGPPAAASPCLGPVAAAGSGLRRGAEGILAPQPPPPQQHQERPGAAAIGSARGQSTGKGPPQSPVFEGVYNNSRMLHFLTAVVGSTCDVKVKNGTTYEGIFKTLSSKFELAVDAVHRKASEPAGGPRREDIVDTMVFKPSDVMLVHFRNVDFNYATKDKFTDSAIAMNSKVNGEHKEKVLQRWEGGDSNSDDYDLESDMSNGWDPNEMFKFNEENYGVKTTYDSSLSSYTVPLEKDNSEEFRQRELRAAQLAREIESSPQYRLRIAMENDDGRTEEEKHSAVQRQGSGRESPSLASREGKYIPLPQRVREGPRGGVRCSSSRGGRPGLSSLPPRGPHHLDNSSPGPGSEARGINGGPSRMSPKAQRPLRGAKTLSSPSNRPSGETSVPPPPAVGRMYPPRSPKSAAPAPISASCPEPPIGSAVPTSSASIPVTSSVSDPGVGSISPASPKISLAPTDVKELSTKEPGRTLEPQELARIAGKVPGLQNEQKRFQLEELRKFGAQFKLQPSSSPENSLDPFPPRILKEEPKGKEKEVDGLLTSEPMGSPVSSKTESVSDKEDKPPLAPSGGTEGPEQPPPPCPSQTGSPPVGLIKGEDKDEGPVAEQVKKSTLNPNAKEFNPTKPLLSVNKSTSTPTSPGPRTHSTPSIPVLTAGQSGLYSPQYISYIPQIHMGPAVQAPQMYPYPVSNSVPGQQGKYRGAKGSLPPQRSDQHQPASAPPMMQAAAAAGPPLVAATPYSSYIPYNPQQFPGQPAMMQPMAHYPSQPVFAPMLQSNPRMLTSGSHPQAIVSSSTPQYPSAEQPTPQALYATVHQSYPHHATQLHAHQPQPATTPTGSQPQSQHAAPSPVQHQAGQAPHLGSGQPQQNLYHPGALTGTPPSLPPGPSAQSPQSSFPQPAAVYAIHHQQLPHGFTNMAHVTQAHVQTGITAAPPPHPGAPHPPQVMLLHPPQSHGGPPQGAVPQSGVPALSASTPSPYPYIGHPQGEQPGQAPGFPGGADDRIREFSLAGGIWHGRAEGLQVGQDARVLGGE
UniProt O43681: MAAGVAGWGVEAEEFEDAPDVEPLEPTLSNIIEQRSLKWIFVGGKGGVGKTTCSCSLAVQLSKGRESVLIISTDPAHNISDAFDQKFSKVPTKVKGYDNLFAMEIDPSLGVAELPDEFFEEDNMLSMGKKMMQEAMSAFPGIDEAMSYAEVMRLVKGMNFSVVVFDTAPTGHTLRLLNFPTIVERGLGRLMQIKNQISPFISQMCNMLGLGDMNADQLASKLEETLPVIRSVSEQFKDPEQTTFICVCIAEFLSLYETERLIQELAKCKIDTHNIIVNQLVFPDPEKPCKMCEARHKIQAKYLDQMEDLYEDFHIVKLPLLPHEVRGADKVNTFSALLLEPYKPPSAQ
UniProt Q6ZNE5, whole entry, looked up: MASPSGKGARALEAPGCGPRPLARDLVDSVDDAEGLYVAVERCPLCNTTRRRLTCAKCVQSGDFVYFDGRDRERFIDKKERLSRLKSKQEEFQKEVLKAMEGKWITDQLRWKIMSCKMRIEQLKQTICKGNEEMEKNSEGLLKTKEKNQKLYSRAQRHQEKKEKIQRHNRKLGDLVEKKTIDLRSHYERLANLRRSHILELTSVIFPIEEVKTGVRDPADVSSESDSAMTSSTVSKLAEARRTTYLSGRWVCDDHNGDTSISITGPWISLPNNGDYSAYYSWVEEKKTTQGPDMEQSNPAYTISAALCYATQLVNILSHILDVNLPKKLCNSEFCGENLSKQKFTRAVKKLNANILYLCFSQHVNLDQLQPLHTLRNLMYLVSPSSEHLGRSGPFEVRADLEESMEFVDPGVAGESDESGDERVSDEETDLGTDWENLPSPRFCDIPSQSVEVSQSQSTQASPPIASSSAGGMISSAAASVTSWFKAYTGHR
UniProt Q9UBL3, whole entry, looked up: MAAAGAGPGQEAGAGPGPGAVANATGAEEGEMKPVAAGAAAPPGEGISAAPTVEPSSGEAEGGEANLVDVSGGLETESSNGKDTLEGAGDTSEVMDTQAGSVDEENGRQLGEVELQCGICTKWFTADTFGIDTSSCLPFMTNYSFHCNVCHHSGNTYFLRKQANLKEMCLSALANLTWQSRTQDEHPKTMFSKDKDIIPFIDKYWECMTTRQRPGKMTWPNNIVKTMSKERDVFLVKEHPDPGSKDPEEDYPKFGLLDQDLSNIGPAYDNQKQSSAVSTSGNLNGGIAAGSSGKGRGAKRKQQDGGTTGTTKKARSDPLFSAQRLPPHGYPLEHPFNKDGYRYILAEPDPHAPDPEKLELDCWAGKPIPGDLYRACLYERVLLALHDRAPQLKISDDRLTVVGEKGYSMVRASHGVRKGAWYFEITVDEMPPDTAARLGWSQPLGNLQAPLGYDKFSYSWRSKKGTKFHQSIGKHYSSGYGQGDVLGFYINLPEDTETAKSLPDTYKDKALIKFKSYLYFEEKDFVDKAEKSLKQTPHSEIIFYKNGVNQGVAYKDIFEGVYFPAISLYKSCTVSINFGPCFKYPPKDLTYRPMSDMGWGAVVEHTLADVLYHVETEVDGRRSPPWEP
UniProt Q9Y5K8, whole entry, looked up: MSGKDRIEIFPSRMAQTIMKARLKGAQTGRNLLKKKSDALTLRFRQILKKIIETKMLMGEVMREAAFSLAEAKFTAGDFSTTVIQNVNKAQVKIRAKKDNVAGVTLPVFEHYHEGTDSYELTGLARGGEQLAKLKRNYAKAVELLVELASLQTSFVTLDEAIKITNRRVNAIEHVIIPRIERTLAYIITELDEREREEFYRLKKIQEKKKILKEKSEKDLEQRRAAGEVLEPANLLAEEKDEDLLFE
UniProt O75348, whole entry, looked up: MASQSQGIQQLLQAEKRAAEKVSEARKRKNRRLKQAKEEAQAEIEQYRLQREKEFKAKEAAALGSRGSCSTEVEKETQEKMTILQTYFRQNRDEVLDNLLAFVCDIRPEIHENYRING
UniProt O94766: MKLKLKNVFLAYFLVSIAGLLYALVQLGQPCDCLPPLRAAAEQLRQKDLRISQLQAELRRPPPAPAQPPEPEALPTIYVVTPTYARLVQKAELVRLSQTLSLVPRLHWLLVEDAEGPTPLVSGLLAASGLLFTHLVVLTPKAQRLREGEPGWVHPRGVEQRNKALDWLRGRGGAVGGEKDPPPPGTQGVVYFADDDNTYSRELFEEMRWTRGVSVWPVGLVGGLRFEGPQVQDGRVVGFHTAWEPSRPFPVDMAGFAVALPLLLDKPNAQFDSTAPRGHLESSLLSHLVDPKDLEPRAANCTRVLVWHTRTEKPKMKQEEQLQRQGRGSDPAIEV

The other results are listed elsewhere or left out.
What follows are targets tested with CC1=C2C(=CC=C1)N=C(N(C2=O)C3=CC=CC=C3C)CN4C=NC5=C(N=CN=C54)N (assay: log2 fold change, soluble protein after heating vs DMSO (PISA); higher = thermal stabilisation; K562 lysate, 10 uM; active = over 0.2 and 3.5 SD of the protein, either way, in both replicates (recomputed)).
How it was run: (§1)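 Pellets of K562 cells were dounce-homogenised in PBS pH 7.4 with 1 mM MgCl2, and the crude extract was held at 1 mg/mL protein for a 30 min treatment with 10 μM compound. Aliquots were heated for 3 min over 48°C-58°C and pooled before NP-40 was added to 0.5% at 4°C. The supernatant from 21,000xg for 90 min was quantified by TMTpro 16plex LC-MS/MS with channel sums equalised. Values are reported from duplicates as log-two fold change in thermal stability relative to solvent controls.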
In the case of ATRN (UniProt O75882), the log2 fold change is reported as inactive: -0.005.
In the case of ATRX (UniProt P46100), the log2 fold change is reported as inactive: 0.164.
With ATAD3A (UniProt Q9NVI7) the log2 fold change was inactive: 0.026.
For ATP6V0A1 isoform 3 (UniProt Q93050), the log2 fold change was inactive: 0.05.
ATG12 (UniProt O94817) was tested, and the log2 fold change was inactive: 0.015.
For ATXN2L (UniProt Q8WWM7), the log2 fold change was inactive: 0.095.
For ATG16L1 (UniProt Q676U5), the log2 fold change was inactive: -0.027.
With ASNA1 (UniProt O43681) the log2 fold change was inactive: -0.026.
For ATP1A1 (UniProt P05023), the log2 fold change was inactive: -0.005.
With ATRIP (UniProt Q8WXE1) the log2 fold change was inactive: -0.056.
ATF7IP isoform 4 (UniProt Q6VMQ6) was tested, and the log2 fold change was inactive: 0.029.
With ATP6V1B2 (UniProt P21281) the log2 fold change was inactive: -0.033.
With ATG14 (UniProt Q6ZNE5) the log2 fold change was inactive: 0.092.
In the case of AZI2 (UniProt Q9H6S1), the log2 fold change is reported as inactive: 0.
For ATXN2 (UniProt Q99700), the log2 fold change was inactive: 0.075.
With ASH2L (UniProt Q9UBL3) the log2 fold change was inactive: 0.016.
ATXN2L isoform 3 (UniProt Q8WWM7) was tested, and the log2 fold change was inactive: -0.019.
With ATL3 (UniProt Q6DD88) the log2 fold change was inactive: 0.028.
For ATP6V1D (UniProt Q9Y5K8), the log2 fold change was inactive: -0.005.
ASB3 isoform 3 (UniProt Q9Y575) was tested, and the log2 fold change was inactive: 0.003.
In the case of B3GLCT (UniProt Q6Y288), the log2 fold change is reported as inactive: 0.036.
In the case of ATP6V1G1 (UniProt O75348), the log2 fold change is reported as inactive: 0.003.
B3GAT3 (UniProt O94766) was tested, and the log2 fold change was inactive: 0.011.
With ASF1B (UniProt Q9NVP2) the log2 fold change was inactive: 0.039.
For ATPAF1 (UniProt Q5TC12), the log2 fold change was inactive: 0.004.
For ATR (UniProt Q13535), the log2 fold change was inactive: -0.04.
ATP1B2 (UniProt P14415) was tested, and the log2 fold change was inactive: -0.03.

These targets were tested with Cc1sc2c(c1C)C(c1ccc(Cl)cc1)=N[C@@H](CC(=O)OC(C)(C)C)c1nnc(C)n1-2 in the same assay as above.
How it was run: as §1
ATRN (UniProt O75882) was tested, and the log2 fold change was inactive: -0.03.
ATRX (UniProt P46100) was tested, and the log2 fold change was inactive: -0.057.
For ATAD3A (UniProt Q9NVI7), the log2 fold change was inactive: 0.
For ATP6V0A1 isoform 3 (UniProt Q93050), the log2 fold change was inactive: -0.005.
In the case of ATG12 (UniProt O94817), the log2 fold change is reported as inactive: 0.052.
For ATXN2L (UniProt Q8WWM7), the log2 fold change was inactive: 0.
With ATG16L1 (UniProt Q676U5) the log2 fold change was inactive: -0.008.
In the case of ASNA1 (UniProt O43681), the log2 fold change is reported as inactive: -0.001.
With ATP1A1 (UniProt P05023) the log2 fold change was inactive: -0.015.
ATRIP (UniProt Q8WXE1) was tested, and the log2 fold change was inactive: -0.032.
In the case of ATF7IP isoform 4 (UniProt Q6VMQ6), the log2 fold change is reported as inactive: 0.017.
With ATP6V1B2 (UniProt P21281) the log2 fold change was inactive: -0.065.
With ATG14 (UniProt Q6ZNE5) the log2 fold change was inactive: -0.043.
With AZI2 (UniProt Q9H6S1) the log2 fold change was inactive: 0.035.
In the case of ATXN2 (UniProt Q99700), the log2 fold change is reported as inactive: -0.02.
For ASH2L (UniProt Q9UBL3), the log2 fold change was inactive: 0.039.
With ATXN2L isoform 3 (UniProt Q8WWM7) the log2 fold change was inactive: -0.053.
ATL3 (UniProt Q6DD88) was tested, and the log2 fold change was inactive: -0.021.
For ATP6V1D (UniProt Q9Y5K8), the log2 fold change was inactive: 0.02.
With B3GLCT (UniProt Q6Y288) the log2 fold change was inactive: -0.015.
In the case of ATP6V1G1 (UniProt O75348), the log2 fold change is reported as inactive: -0.029.
In the case of B3GAT3 (UniProt O94766), the log2 fold change is reported as inactive: -0.001.
In the case of ASF1B (UniProt Q9NVP2), the log2 fold change is reported as inactive: 0.001.
In the case of ATPAF1 (UniProt Q5TC12), the log2 fold change is reported as inactive: 0.038.
With ATR (UniProt Q13535) the log2 fold change was inactive: 0.003.
For ATP1B2 (UniProt P14415), the log2 fold change was inactive: -0.002.
